This is an account of results in patent US20260023068A1, “USE OF A FBXO42 SPECIFIC INHIBITOR IN TREATING NOTCH SIGNALING-DEPENDENT DISEASE” (WESTLAKE UNIVERSITY, priority 2022, published 2026).

By UniProt entry, the sequences of proteins in these tests, tags left out. Where a name states a change or a piece, a line headed by the entry shows the natural chain unless it says otherwise. Chains listed by the source or under a name are the forms on record and can include a tag or linker. Residues count along the entry.
UniProt Q06330: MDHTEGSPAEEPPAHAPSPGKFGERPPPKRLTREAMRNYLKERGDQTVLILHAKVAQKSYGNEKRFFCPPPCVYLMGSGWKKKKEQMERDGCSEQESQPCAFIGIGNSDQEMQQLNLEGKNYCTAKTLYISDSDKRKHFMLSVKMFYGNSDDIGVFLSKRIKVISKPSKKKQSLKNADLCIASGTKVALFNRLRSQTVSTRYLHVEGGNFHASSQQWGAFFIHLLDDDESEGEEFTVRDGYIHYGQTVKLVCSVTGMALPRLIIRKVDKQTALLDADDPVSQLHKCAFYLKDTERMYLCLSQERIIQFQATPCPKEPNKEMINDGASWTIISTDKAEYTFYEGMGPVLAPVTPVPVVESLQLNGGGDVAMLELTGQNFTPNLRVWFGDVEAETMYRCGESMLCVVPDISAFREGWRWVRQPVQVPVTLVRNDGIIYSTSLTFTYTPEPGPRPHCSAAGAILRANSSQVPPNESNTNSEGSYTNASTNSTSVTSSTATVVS
cSFB-tagged RBPJ NTD (N-terminal domain, amino acids 1-178): residues 1-178 of Q06330
UniProt Q6P3S6, residues 101-350: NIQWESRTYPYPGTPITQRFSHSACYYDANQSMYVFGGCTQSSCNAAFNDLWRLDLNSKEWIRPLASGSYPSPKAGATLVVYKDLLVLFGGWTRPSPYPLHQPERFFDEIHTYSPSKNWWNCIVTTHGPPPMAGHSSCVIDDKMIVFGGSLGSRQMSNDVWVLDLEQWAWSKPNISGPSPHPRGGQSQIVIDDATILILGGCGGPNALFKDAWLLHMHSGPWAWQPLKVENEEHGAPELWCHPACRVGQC

Results are given in words; binding and its absence hold for the method and conditions named. In cells and extracts the contact can be indirect. Some entries that bind do so weakly or less than the wild type.

Experiment [1] has as its target cSFB-tagged RBPJ NTD (N-terminal domain, amino acids 1-178) (UniProt Q06330). The experiment can be described thus: co-IP (S beads) of Myc-tagged FBXO42 Kelch domain and cSFB-tagged RBPJ NTD in HEK293T cells, western blot. For orientation: A western blot detects proteins with antibodies after separation by electrophoresis.
Experiment [2] concerns the target T1, L3MBTL3 (lethal(3) malignant brain tumor-like protein 3) (UniProt Q96JM7).
T1 sequence (looked up): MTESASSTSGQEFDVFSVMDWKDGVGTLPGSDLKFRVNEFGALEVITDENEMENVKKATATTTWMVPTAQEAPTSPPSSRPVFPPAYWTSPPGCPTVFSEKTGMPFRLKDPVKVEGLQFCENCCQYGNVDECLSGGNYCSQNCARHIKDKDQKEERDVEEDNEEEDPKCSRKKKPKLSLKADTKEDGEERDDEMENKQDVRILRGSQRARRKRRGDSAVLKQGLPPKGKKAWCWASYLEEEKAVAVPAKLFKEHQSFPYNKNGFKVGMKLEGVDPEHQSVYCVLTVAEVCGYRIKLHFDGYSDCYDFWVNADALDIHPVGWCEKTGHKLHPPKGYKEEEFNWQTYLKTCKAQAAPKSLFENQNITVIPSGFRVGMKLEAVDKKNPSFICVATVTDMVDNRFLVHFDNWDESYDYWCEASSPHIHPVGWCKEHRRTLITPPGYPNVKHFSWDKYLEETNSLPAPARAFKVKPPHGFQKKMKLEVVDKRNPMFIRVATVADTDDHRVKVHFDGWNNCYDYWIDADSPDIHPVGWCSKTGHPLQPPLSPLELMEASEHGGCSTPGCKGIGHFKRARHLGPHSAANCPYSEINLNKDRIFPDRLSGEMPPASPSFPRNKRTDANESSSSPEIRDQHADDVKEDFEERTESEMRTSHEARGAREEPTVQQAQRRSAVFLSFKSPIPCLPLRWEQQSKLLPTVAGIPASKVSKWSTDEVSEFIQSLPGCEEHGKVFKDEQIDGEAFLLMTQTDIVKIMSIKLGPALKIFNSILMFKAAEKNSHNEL
The experiment is described as follows: S-protein bead pull-down of cSFB-RBPJ from WT and FBXO42-KO HEK293T cells, immunoblot with endogenous antibodies.

“Myc-tagged FBXO42 Kelch domain (amino acids 101-350) (from UniProt Q6P3S6 101-350)”: the binding entry in experiment [1] is recorded as “binds”. As to “cSFB-tagged RBPJ (recombination signal-binding protein of immunoglobulin kappa J region with C-terminal SFB tag) (from UniProt Q06330 1-500)”, in experiment [2], the binding result is given as “binds”.
